The source of these data is doi:10.1101/480996.

Amino acid sequences for entries named in this document (tags omitted).
UniProt Q12446: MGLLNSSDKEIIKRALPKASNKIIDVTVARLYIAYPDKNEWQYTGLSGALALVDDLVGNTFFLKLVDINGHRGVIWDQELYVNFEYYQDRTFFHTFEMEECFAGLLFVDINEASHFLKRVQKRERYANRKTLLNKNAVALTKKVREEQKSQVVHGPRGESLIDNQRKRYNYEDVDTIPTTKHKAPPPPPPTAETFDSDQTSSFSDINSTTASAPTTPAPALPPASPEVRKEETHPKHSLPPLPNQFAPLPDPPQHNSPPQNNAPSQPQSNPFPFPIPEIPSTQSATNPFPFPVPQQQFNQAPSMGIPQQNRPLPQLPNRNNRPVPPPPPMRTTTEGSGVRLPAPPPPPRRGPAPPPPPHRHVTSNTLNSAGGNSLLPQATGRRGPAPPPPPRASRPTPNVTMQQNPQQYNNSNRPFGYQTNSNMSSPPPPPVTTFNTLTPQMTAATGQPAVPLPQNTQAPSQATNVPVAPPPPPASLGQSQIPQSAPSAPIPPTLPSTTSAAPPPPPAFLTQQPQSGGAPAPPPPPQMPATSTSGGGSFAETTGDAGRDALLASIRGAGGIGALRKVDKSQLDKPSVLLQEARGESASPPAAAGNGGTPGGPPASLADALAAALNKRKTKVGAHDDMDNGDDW

Where two headings read alike, the source gives them in different places. No constants are given. Whether binding was seen depends on the method and setting. Binding seen in cells or lysates may run through a third protein. Some entries that bind do so weakly or less than the wild type. For some of these results: Where a sequence is shown, tags or fusion partners need not be part of it.

Assay in all cases: FRET or BRET
For test [1], the target named is T1, Sla1, C-terminally tagged (GFP/mCherry screen) (S. cerevisiae) (UniProt P32790).
T1 sequence: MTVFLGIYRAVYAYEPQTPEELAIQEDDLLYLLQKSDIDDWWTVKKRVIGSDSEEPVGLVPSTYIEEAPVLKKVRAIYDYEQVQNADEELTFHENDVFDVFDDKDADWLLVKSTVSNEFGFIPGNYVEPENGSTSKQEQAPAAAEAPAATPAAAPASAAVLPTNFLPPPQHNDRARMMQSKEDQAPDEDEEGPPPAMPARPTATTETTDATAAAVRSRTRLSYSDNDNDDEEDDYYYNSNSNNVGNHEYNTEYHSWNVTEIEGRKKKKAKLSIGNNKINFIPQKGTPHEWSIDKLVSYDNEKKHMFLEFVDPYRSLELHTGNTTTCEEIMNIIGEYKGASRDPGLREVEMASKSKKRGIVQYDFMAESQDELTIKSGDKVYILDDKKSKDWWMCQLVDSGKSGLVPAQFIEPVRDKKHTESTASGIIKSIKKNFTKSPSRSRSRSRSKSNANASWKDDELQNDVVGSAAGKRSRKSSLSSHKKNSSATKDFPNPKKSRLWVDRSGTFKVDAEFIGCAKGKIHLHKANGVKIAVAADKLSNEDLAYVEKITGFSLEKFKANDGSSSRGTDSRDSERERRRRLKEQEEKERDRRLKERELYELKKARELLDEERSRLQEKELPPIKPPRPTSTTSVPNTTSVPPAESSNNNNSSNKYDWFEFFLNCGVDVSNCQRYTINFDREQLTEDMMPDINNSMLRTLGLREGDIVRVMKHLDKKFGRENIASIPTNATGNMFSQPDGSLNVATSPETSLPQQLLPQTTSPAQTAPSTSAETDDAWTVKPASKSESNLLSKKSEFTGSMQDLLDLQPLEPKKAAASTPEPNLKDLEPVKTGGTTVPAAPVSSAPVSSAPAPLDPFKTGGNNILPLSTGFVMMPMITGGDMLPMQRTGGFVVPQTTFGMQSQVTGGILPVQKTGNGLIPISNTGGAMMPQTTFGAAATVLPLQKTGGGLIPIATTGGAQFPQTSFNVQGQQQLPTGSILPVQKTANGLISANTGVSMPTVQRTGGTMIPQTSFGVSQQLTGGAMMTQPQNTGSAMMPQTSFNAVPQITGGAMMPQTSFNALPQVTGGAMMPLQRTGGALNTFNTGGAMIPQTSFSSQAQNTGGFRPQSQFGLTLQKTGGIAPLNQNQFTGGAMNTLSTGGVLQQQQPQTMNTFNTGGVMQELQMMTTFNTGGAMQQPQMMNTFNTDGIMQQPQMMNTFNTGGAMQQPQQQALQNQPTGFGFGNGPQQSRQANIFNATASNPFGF

In test [2] the target is T2, Sla1-mNeonGreen (S. cerevisiae) (UniProt P32790).
T2 sequence: T1 sequence

Test [3] has as its target T3, Sla1, N-terminally tagged with mNeonGreen (S. cerevisiae) (UniProt P32790).
T3 sequence: T1 sequence

In test [4] the target is T4, Ede1, fluorescently tagged (Syp1-Ede1 pair) (S. cerevisiae) (UniProt P34216).
T4 sequence: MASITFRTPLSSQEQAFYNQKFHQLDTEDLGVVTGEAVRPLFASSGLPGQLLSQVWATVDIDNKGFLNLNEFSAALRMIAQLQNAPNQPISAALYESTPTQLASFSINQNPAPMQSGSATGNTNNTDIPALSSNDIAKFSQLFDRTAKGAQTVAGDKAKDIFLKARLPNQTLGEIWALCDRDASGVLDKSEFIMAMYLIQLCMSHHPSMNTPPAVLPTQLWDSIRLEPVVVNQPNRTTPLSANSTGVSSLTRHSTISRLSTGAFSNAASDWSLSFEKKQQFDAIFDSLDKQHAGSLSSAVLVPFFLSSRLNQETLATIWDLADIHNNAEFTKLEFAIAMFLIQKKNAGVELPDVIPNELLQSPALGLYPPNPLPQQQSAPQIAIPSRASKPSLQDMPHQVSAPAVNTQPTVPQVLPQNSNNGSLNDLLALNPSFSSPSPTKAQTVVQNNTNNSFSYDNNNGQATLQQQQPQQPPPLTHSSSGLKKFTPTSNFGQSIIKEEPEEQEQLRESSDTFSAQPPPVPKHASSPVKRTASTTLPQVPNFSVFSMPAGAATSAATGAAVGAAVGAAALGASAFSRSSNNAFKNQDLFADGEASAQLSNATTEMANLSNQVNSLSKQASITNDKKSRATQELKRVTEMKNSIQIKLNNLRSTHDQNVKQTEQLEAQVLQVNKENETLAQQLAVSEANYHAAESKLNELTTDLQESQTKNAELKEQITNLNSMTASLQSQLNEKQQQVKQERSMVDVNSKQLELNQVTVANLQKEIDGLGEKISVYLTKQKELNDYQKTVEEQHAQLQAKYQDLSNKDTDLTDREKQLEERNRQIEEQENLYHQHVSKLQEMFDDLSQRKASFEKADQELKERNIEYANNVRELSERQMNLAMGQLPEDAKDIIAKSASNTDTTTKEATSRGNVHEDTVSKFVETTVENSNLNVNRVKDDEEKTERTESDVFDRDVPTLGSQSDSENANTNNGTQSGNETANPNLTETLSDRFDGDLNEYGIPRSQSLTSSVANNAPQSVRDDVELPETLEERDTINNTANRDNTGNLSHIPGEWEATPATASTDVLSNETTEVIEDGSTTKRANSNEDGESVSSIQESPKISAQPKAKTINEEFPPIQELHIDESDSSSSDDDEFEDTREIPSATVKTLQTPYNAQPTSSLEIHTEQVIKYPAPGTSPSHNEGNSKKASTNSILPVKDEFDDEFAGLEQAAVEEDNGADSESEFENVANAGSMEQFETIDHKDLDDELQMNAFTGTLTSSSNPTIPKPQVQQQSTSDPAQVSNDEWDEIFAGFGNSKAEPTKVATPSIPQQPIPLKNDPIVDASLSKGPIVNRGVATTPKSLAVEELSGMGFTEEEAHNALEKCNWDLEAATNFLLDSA

For test [5], the target named is T4, Ede1, fluorescently tagged (Syp1-Ede1 pair) (S. cerevisiae). This is another data set of the same source.
Test [6] concerns the target T5, End3, fluorescently tagged (Pan1-End3 pair of Table 1) (S. cerevisiae) (UniProt P39013).
T5 sequence: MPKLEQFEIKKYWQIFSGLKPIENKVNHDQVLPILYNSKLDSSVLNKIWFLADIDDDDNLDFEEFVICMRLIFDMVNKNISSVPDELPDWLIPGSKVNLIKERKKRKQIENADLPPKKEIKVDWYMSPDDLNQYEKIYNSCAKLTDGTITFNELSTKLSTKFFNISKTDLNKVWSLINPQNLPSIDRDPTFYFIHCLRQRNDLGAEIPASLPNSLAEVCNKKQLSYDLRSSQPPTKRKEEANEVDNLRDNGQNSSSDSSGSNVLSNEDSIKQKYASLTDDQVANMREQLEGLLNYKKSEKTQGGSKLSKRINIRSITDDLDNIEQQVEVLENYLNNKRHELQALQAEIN

Test [7] deals with T5, End3, fluorescently tagged (Pan1-End3 pair of Table 1) (S. cerevisiae). The source holds these as a separate data set.

Take “Las17, C-terminally tagged (from UniProt Q12446 1-633)”: the binding result in test [1] was “binds”.

“Las17, N-terminally tagged with mTurquoise2 (from UniProt Q12446 1-633)”: the binding entry in test [2] and in test [3] was “binds” in each case.

B1: Syp1, fluorescently tagged (Syp1-Ede1 pair) (protein, UniProt P25623 1-870)
chain: MTEQRTKYADSILTTKSPYEATETIRIRLSQVKLLNKDFYLLFKELANLKRNYAQQLRKIIAENEDITKILNAQMIESNVLTPQEMSAFRFNSLGELRNVWDTVIEELKSDLKSSTEYYNTLDQQVVRELKESVENNTSWRESKDLHSKLSKNAASIEHYSKNNENSSHLEEARRQWDQQSPYLFELFETIDYNRLDTLKNCMLRFQTSFSDYLLNTTKECETVMTKFLAFEPQSEIDRFAKDASQYNFQLSSSSKEVVPNNASPASATGARPVSVSNGAANTEREKKSPQKDKRKSAFGNIGHRLASASSSLTHNDLMNNEFSDSTNNSSLKSKKSSHTLRSKVGSIFGRNKTKNKRQQQSSSNSHIQASITETPNNSSTRVSSTATSSIYQKQRRPTYSSSKSNNWTPGEASDTPPLPPHATPKNVDAPVTADTPPAQTFTPSEVPPSTPQQSSPPTAKEPDSSNLPKTVPISISQPPLQPQSKTKPLPVEPASPSISLPTATVDNQPSGQVDSRPLHIRAPALPPSRKQNFIHNRDSQLYDSLPNHGSGATPTSSSLSSIPQERPVSTLSSQITGELRELNPQATGSSTSLVGQSLFQHSSLDTSQFGLNASIAEVLNASFKDGMLQNSQLIGEIALNYLPNSVMNSPLPIGINLRINNGAKFEKVILNQAFIERVAPEEFKVNPSFIDSRTLGAIKYSIKEPIAPIVIHPVWRFESHQASVVLTVKMSPSLPDEISQIVIEDLVVFVNIDGANATSALSKPQGSFSKEKKRITWRFKEPVVLTRNGEGQRLIARFITDGLAHESAKGVITKFTISETDNVALPHSGAGSGITLTCQELDENNPFGGEWLDVNTKRTLTTGNYHGLA
Turning to B1, the binding result in test [4] and in test [5] was “binds” in each case.

B2: Pan1, fluorescently tagged (Pan1-End3 pair of Table 1) (protein, UniProt P32521 1-1480)
chain: MYNPYQQQGMGYQQQQQQQQQQPNGFYPQQQQGQSSNQPQGQPQPQQQMAFNQPQATGIGGMPQSFGNSFSSMPQQPQTGYNNNGNNGSVYGNGNFGQQPQQQQQQAKPQHTGYVPNSSMPMMNTTGTMPPPNPAQQPQLQSIQPQGTGYYQAANTANVHSVQPLQSQGTGYYVSTPNLISSNQTQQPLQAQGTGYYQSQPQQVPPPQQAQSLQPLKPQQTGFYLQPQNQAPLEPLKPTATGFVNSFANNGLNNDIKIPAIRLSFITAQDQAKFETLFRSIVTNGSNTVSGANCRKILMRSGLPPSQLARIWTLCDTSKAGELLFPEFALAMHLINDVLQGDTIPYELDSKTKNEVSSFIDAINLSIANQDSSANDAPKTPFDEFITAGVQNLQPQPTGYMPQTSFGIPLQSQITGGGVASALNPQSTGFMAPTTFNMSMNTGTPGLNPQITGGAPASMQPNITGNALQPQTTGMMPQTTGMMPQTTGMMPQTSFGVNLGPQLTGGALQSQYTGGYGSVMPQQSGPASMPNLSFNQQGLQSQLTGLQPQPTGFLPPSNFSATMPLTAQKTGFGNNEIYTKSNFNNNLIDNSSQDKISTEEKSLFYKIFETFDTQNKGLLDSPTAVEIFRKSGLNRADLEQIWNLCDINNTGQLNKQEFALGMHLVYGKLNGKPIPNVLPSSLIPSSTKLLDNLKNQLKTEPTTTKEKPSFGKIDALSYKNNDDDVLPNYRNRRKVYSAKNEEQSSFSSPSAKSVNHSSSTLQTDDISVDKTVEKKTAKPKYAGFSREINLKNIASLENEIKNISNPENCYDSSIPSDLTSRFDAIIAKLPNLFNEISTIDNEITNAKIQLYRKKNPSSIIGSGPNGEITENDRKKAKSRALLRARMSALTGKSTESEDSLSMEDEQQSAEIKRIQQENGKNQEIIKDIRSSISDISASLKSTMTGSNMISNQEFERWEFGIGLEDGVREFLDDLKSNSNKSVTESSPFVPSSTPTPVDDRSSSPSYSQFKTAEERAAYLKEQAKKRMKEKLAKFDKNRRNVTQSSRSISSENSREQPQQIAGSSNLVEPRATPFQEEKYVEVAQPTQPVQSTQPVQPTQPVQPTQPVQPTQPVQPTQPVQPTQPVQNVYNAKQESDDEDEDDEEKRLQEELKRLKLKKKADKEKRLAALRKQIEDAQNESDEEETNGKDNFGGHVNVPQAAPVAPSAAFSQNSTNAPRSVHAAVTPAAGKNSTGLPSTTMGHNPYFKDASASSTSTFDARAAEMQRRIQRGLDEDEDDGWSDEDESNNRVAVDNKVEEAKIGHPDHARAPPVTAAPLPSVTPVPPAVPVPQANTSNEKSSPIPIAPIPPSVTQEPPVPLAPPLPAVDGFQEPPIPSAPAIATAVQKSGSSTPALAGGVLPPPPPLPTQQASTSEPIIAHVDNYNGAEKGTGAYGSDSDDDVLSIPESVGTDEEEEGAQPVSTAGIPSIPPAGIPPPPPLP
Consider B2, for which the binding result in test [6] and in test [7] was “binds” in each case.
